Experimental data from paper doi:10.1101/2024.02.16.579611.
No constants are given. Whether binding was seen depends on the method and setting.

The chains behind the UniProt entries cited, without tags or fusion partners. Where a name states a change or a piece, a line headed by the entry shows the natural chain unless it says otherwise.
UniProt P07674: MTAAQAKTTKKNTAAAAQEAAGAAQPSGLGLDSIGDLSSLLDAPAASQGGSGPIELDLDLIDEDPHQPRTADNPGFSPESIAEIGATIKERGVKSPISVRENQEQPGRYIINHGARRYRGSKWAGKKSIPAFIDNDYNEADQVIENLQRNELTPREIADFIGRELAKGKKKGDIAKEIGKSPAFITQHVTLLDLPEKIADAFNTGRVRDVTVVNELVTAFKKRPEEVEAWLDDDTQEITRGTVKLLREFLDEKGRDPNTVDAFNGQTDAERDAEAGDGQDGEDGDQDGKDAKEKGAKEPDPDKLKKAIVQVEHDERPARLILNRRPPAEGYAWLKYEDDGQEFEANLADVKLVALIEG
UniProt P03052: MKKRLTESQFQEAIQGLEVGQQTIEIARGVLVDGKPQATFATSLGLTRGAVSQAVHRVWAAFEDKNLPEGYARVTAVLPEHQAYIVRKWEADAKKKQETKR

Tests used:
[1] = biological target: KorB F249A, C-terminally His-tagged (plasmid RK2) (UniProt P07674); experiment: ITC
[2] = biological target: KorB (wild type), C-terminally His-tagged (plasmid RK2) (UniProt P07674); experiment: ITC

**Q.** Which binding [1] does the source give for “KorA (wild type), C-terminally His-tagged (from UniProt P03052)” here?
**A.** Its binding is “no binding”.

**Q.** For “KorA Y84A, C-terminally His-tagged (from UniProt P03052)”, which binding [2] is on record?
**A.** The binding was “no binding”.
